In paper PMC11350264:
Where a chain is given by its changes, count along the chain named. No constants are given. Whether binding was seen depends on the method and setting. Some entries that bind do so weakly or less than the wild type. Sequences can lack the tags named with a protein.

Chains of the proteins cited; added tags and fusions are not shown. Lines headed by an entry give the natural chain unless they say otherwise; changes in a name come on top.
UniProt Q5VMP0: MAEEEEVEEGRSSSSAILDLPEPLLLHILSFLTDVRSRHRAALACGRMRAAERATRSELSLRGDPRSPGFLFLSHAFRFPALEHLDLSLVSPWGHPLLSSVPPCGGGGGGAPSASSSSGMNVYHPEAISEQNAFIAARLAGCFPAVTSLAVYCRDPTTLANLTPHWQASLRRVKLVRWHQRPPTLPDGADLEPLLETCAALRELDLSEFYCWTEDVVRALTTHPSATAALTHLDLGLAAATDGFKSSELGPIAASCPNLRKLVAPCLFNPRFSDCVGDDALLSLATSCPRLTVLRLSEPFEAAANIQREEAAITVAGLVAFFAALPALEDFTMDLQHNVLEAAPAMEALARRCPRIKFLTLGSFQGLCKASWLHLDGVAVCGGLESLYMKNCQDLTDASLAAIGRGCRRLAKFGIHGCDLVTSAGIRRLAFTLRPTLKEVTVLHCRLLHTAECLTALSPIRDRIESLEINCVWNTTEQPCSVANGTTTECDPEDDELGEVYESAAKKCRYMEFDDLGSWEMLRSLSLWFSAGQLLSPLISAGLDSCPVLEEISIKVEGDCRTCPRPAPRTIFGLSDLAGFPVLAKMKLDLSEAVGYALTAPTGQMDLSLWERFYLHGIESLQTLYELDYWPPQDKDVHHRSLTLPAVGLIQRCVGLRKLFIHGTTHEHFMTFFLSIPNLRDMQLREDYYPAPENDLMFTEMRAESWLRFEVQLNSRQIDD

Key:
[1] = target: T1, GST-OsKAI2 (rice KAI2 receptor, wildtype, GST fusion) (rice (Oryza sativa)) (UniProt Q10J20); assay: pull-down; GST-KAI2 or GST-KAI2^int on GST beads (blocked with BSA) incubated with purified His-MSB OsD3-ASK1 and 100 μM (−)-GR24 for 30 min on ice; wash buffer 50 mM Tris, 150 mM NaCl, 1% glycerol, 1 mM TCEP; eluted with reduced glutathione; Western blot with anti-His, band intensity quantified; both …
T1 sequence: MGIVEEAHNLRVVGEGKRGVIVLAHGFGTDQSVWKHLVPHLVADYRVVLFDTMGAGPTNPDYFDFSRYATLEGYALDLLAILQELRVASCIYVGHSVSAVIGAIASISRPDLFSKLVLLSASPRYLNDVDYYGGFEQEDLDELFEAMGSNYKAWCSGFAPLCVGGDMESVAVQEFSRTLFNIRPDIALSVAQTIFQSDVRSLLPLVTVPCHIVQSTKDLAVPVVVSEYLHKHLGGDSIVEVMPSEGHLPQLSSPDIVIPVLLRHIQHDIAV

[2] = target: T2, GST-OsKAI2^int (rice KAI2 with D30A, D51A, E174A, N181A, GST fusion) (rice (Oryza sativa)) (UniProt Q10J20); assay: as above
T2 sequence: T1 sequence with D30A, D51A, E174A, N181A

HisMSB-OsD3-ASK1 (rice F-box protein DWARF3 in complex with ASK1) (from UniProt Q5VMP0 1-720; Q39255 1-160)
binding [1]: binds
binding [2]: binds
